# According to the supplement of paper PMC10398353:
# “And” between values parts separate entries of the source, which are not always exact repeats. Equal entries are not always repeated. Structures can show the parent of a compound that is named as a salt. ± gives the standard deviation of the averaged measurements. The list shows a part of the results. The data scatter; read single values as rough.
# System: Salmonella enterica serovar Typhimurium ST313 D23580
# Assay: normalized bacterial growth (OD600 20 h minus 0 h, interquartile-mean normalized) (fraction of plate interquartile mean); higher = more bacterial growth (less inhibition)
# Settings: LPM (pH 5.8, low phosphate, low Mg2+), concentration: 10 µM, temperature: 37 °C
row,SMILES,normalized bacterial growth
1,CC(C)c1c(O)c(-c2cc3c(c(C(C)C)c2O)CCC2C(C)(C)CCC[C@]32C)cc2c1CCC1C(C)(C)CCC[C@]21C (stereo not given in full),1.25
2,C1CCC(C(CC2CCCCN2)C2CCCCC2)CC1 (stereo not given),0.933
3,CN1CC(=O)N2[C@H](c3ccc4c(c3)OCO4)c3[nH]c4ccccc4c3C[C@@H]2C1=O,0.617
4,CC(C)NCC(O)COc1ccc(CCOCC2CC2)cc1 (stereo not given) [Betaxolol hydrochloride],1.02
5,CC(=O)[C@@]1(O)CC[C@H]2[C@@H]3C[C@H](C)C4=CC(=O)C=C[C@]4(C)[C@@]3(F)[C@@H](O)C[C@@]21C [Fluorometholone],0.942
6,CC(=O)[C@@]1(O)CC[C@H]2[C@@H]3C[C@H](C)C4=CC(=O)C=C[C@]4(C)[C@@]3(F)[C@@H](O)C[C@@]21C,0.697
7,CCc1nc(N)nc(N)c1-c1ccc(Cl)cc1,0.837
8,COC(=O)CCCOc1ccc(Cl)cc1Cl,0.961
9,COc1cccc2oc(-c3ccccc3)cc(=O)c12,0.964
10,COc1ccc2c(c1)OC/C(=C/c1ccc(OC)c(OC)c1)C2=O,0.755
11,O=C(O)C1CC([C@@H]2CCCCN2)CN2CCCCC12 (stereo not given in full),1.08
12,COc1cc(C(=O)NCc2ccc(OCCN(C)C)cc2)cc(OC)c1OC,0.879
13,Cc1ccc(S(=O)(=O)N[C@@H](Cc2ccccc2)C(=O)CCl)cc1 [N-p-Tosyl-L-phenylalanine chloromethyl ketone],1.14
14,NC1CCN(c2cccc(Cl)n2)CC1,0.98
15,NC(=NCCC[C@H](N)C(=O)O)NO [NG-Hydroxy-L-arginine acetate],1.03
16,C[C@@H]1CC[C@H]2[C@](C)(CO)[C@@H](O)CC[C@]2(C)[C@@]12CC[C@@](CO)(CCO)O2,0.964 and 0.927
17,"Cn1c(=O)[nH]c2ncn(C)c2c1=O [""1,7-Dimethylxanthine""]",1.28
18,C1COC(NC(C2CC2)C2CC2)=N1 [Rilmenidine hemifumarate],0.919
19,Cc1cc(C(C)(C)C)c(O)c(C(C)(C)C)c1,0.959
20,COc1ccc2c(c1)OCC(Cc1ccc(OC)c(O)c1)C2=O (stereo not given),0.531
21,O=C(O)c1cn(C2CC2)c2cc(N3CCNCC3)c(F)cc2c1=O,0.0226
22,O=C(O)c1cn(C2CC2)c2cc(N3CCNCC3)c(F)cc2c1=O [Ciprofloxacin hydrochloride],0.0699

row,SMILES,normalized bacterial growth
1,CCCn1c(=O)[nH]c(=O)c2[nH]cnc21 [3-n-Propylxanthine],1.09
2,COc1ccc(/C=C/C(=O)c2ccc(O)cc2O)cc1,1.07
3,OC[C@H]1O[C@@H](n2cnc3c(NC4CCCC4)ncnc32)[C@H](O)[C@@H]1O [N6-Cyclopentyladenosine],1.42
4,C[N+](C)(C)CC=O [Betaine aldehyde chloride],1.16
5,Cc1nn(-c2ccccc2)c(C)c1C=NN1CCN(Cc2ccccc2)CC1,0.629
6,CCCCCCCCCCCCCC[C@@H](O)[C@@H](O)[C@@H](N)CO,1.62
7,COc1c(CC(=O)c2cc3c(cc2O)OC(C)(C)C(O)C3)ccc2c1C=CC(C)(C)O2 (stereo not given),0.814
8,Fc1ccc(CN(C2=NCCN2)c2c(Cl)cccc2Cl)cc1 [IMID-4F hydrochloride],1.14
9,Clc1ccc(C(Cn2ccnc2)OCc2ccsc2Cl)c(Cl)c1 (stereo not given),0.617
10,O=C(O)CNC(=O)C(CS)Cc1ccccc1 (racemic) [DL-Thiorphan],1.13
11,CCCC1C(=O)N2C(N(C)C)=Nc3ccc(C)cc3N2C1=O (stereo not given) [Azapropazone],1.34
12,c1cnc(N2CCN(Cc3ccc4c(c3)OCO4)CC2)nc1 [Piribedil maleate],1.21
13,c1cnc(N2CCN(Cc3ccc4c(c3)OCO4)CC2)nc1 [Piribedil hydrochloride],1.14
14,C[C@](N)(Cc1ccc(O)c(O)c1)C(=O)O [L-alpha-Methyl DOPA],0.954
15,C=CC(C1=CC(=O)C(OC)=CC1=O)c1ccccc1 (stereo not given),0.71
16,C[C@H]1c2cccc(O)c2C(=O)C2=C(O)[C@]3(O)C(=O)C(C(N)=O)=C(O)[C@@H](N(C)C)[C@@H]3[C@@H](O)[C@@H]21 [Doxycycline hydrochloride],0.26
17,C[C@H]1c2cccc(O)c2C(=O)C2=C(O)[C@]3(O)C(=O)C(C(N)=O)=C(O)[C@@H](N(C)C)[C@@H]3[C@@H](O)[C@@H]21 [Doxycycline hyclate],0.0156
18,C[C@H]1[C@H](C)CC[C@]2(C(=O)O[C@@H]3O[C@H](CO[C@@H]4O[C@H](CO)[C@@H](O[C@@H]5O[C@H](C)[C@H](O)[C@@H](O)[C@H]5O)[C@H](O)[C@H]4O)[C@@H](O)[C@H](O)[C@H]3O)CC[C@]3(C)C(=CC[C@@H]4[C@@]5(C)C[C@@H](O)[C@H](O)[C@@](C)(CO)[C@@H]5CC[C@]43C)[C@H]12 [Asiaticoside],1.3
19,"Cc1c(O)c(=O)n(-c2ccccc2)n1C [""Antipyrine, 4-hydroxy""]",0.876
20,CC=CC1=C(C(=O)O)N2C(=O)[C@@H](NC(=O)[C@H](N)c3ccc(O)cc3)[C@H]2SC1,1.1
21,COC(=O)c1c(C)cc(OC)cc1O,1.17
22,NC(=O)CC[C@H](N)C(=O)O [L-Glutamine],1.15

row,SMILES,normalized bacterial growth
1,O=C1c2ccccc2C(=O)C1c1ccc(Br)cc1,1.29
2,Cc1cc2c(s1)Nc1ccccc1N=C2N1CCN(C)CC1,1.46
3,CC1(C)C(O[C@@H]2OC[C@@H](O)[C@H](O)[C@H]2O)CC[C@]23CC24CC[C@]2(C)[C@@H]([C@@]5(C)CC[C@@H](C(C)(C)O)O5)[C@H](O)C[C@@]2(C)C4C[C@@H](O[C@@H]2O[C@H](CO)[C@@H](O)[C@H](O)[C@H]2O)C13 (stereo not given in full),1.21
4,Oc1cccc(O)c1,0.783
5,CC(=O)N(c1onc(C)c1C)S(=O)(=O)c1ccc(N)cc1,0.981
6,Cc1cc(O)cc(C)c1Cl,0.782
7,C=C1CCC(C2CC(=O)OC2=O)C(=O)CCC2C1CC2(C)C (stereo not given),1.22
8,"O=C(O)c1cc(=O)c2c(Cl)cc(Cl)cc2[nH]1 [""5,7-Dichlorokynurenic acid""]",0.976
9,"O=Nc1ccc2oc(=O)ccc2c1 [""6-Nitroso-1,2-benzopyrone""]",1.01
10,CC(C)(C)c1ccc(S(=O)(=O)/C=C/C#N)cc1,0.717
11,CC(N)CCCC(C)(C)O (stereo not given),0.992
12,CN1CCCN=C1/C=C/c1cccc(O)c1,0.859
13,CN1CCCN=C1/C=C/c1cccc(O)c1 [Oxantel pamoate],0.623
14,O=C(O)c1cc2cc(Cc3cccnc3)ccc2o1 [Furegrelate sodium],1.06
15,CC(=O)O[C@@H]1C=C[C@]2(C)C(C[C@@H](OC(C)=O)[C@]3(C)C4=CC(=O)O[C@H](c5ccoc5)[C@@]4(C)CCC23)C1(C)C (stereo not given in full),0.448
16,CC1CCN=C(N)S1 (stereo not given) [()-AMT hydrochloride],0.851
17,N#C/C(=C\c1ccc(O)c(O)c1)C(=O)NCCCc1ccccc1 [Tyrphostin AG 555],1.23
18,C/C(=C\C(=O)OCCCCCCCCC(=O)O)C[C@@H]1OC[C@H](C[C@@H]2O[C@H]2[C@@H](C)[C@H](C)O)[C@@H](O)[C@H]1O,0.0812
19,O=C(O)c1cc(N(Cc2ccccc2O)Cc2cc(O)ccc2O)ccc1O,1.19
20,N[C@@H](CSCSC[C@H](N)C(=O)O)C(=O)O,1.16
21,"c1ccc(C2CN3CCSC3=N2)cc1 (single isomer, unassigned; (-)) [(-)-Tetramisole hydrochloride]",1.2
22,CN/C(=N\CCSCc1nc[nH]c1C)NC#N,1.26

row,SMILES,normalized bacterial growth
1,CN/C(=N\CCSCc1nc[nH]c1C)NC#N [Cimetidine],0.98 ± 0.12
2,CCc1cccc(CC)c1NC(=O)CN(CC(=O)O)CC(=O)O [Etifenin],1.18
3,COc1cc2ncnc(Nc3cccc(Cl)c3)c2cc1OC [Tyrphostin AG 1478],0.921
4,CC(=O)Oc1cc(-c2coc3cc(OC(C)=O)c(OC(C)=O)c(OC(C)=O)c3c2=O)cc(OC(C)=O)c1OC(C)=O,0.773
5,Nc1ncnc2c1ncn2C1OC(COP(=O)(O)O)C(O)C1O (stereo not given) [Adenosine 5'-monophosphate monohydrate],1.28
6,CCOC(=O)c1cnc2c(cnn2CC)c1NN=C(C)C [Etazolate hydrochloride],0.963
7,CN1CCCN(C(c2ccccc2)c2ccc(Cl)cc2)CC1 (stereo not given) [Homochlorcyclizine dihydrochloride],0.939
8,C[C@@H]1C[C@H]2[C@@H]3CCC4=CC(=O)C=C[C@]4(C)[C@@]3(Cl)[C@@H](O)C[C@]2(C)[C@@]1(OC(=O)c1ccco1)C(=O)CCl [Mometasone furoate],0.862
9,c1coc(CNc2ncnc3[nH]cnc23)c1,1.05 ± 0.18
10,CCOc1ccc2nc(S(N)(=O)=O)sc2c1,1.11
11,Oc1ccc(-c2nc(-c3ccc(F)cc3)c(-c3ccncc3)[nH]2)cc1,0.941
12,COc1ccc([C@@H](C)C(=O)c2ccc(O)cc2O)cc1,1.15
13,CC1(C)S[C@@H]2[C@H](NC(=O)[C@H](N)c3ccccc3)C(=O)N2[C@H]1C(=O)O [Ampicillin trihydrate],0.974
14,CC1(C)S[C@@H]2[C@H](NC(=O)[C@H](N)c3ccccc3)C(=O)N2[C@H]1C(=O)O,1.05
15,C=C[C@H]1CN2CC[C@H]1C[C@H]2[C@H](O)c1ccnc2ccc(OC)cc12 [Quinine sulfate],1.34
16,C=C[C@H]1CN2CC[C@H]1C[C@H]2[C@H](O)c1ccnc2ccc(OC)cc12,0.894 and 0.957
17,O=C(/C=C/c1ccccc1)c1ccc(O[C@@H]2O[C@H](CO)[C@@H](O)[C@H](O)[C@H]2O)cc1O,1.1
18,O=c1n(CCCN2CCN(c3cccc(Cl)c3)CC2)nc2ccccn12 [Trazodone hydrochloride],0.706
19,CC1/C(=N/O)C[C@@H]2C[C@H]1C2(C)C (stereo not given in full),0.985
